Weaker means in comparison with the reference protein, sequence or condition of that experiment. For part of these data: The exact form of at least one protein or probe is not confirmed. For part of these data: At least one verdict was read from the data and is not stated in words by the source.
What was measured:
Test in all cases: EMSA
[1] = biological target: MeCP2[77-167] (Homo sapiens) (UniProt P51608); conditions: EMSA: 10 mM Tris-HCl pH 7.5, 150 mM KCl (250 mM for MeCP2[1-486]), 0.1 mg/ml BSA, 5% glycerol, 0.1 mM EDTA, 1 ug poly(dA-dT), 1 ng probe, 20 ul, 30 min on ice, recombinant protein, residues 77-167, protein details: C-terminal His, label: 32P
[2] = biological target: MeCP2[1-205] (Homo sapiens) (UniProt P51608); conditions: EMSA: 10 mM Tris-HCl pH 7.5, 150 mM KCl (250 mM for MeCP2[1-486]), 0.1 mg/ml BSA, 5% glycerol, 0.1 mM EDTA, 1 ug poly(dA-dT), 1 ng probe, 20 ul, 30 min on ice, recombinant protein, residues 1-205, protein details: C-terminal His, label: 32P
[3] = biological target: MeCP2[1-486] (Homo sapiens) (UniProt P51608); conditions: 250 mM KCl, EMSA: 10 mM Tris-HCl pH 7.5, 150 mM KCl (250 mM for MeCP2[1-486]), 0.1 mg/ml BSA, 5% glycerol, 0.1 mM EDTA, 1 ug poly(dA-dT), 1 ng probe, 20 ul, 30 min on ice, recombinant protein, residues 1-486, protein details: C-terminal His, label: 32P

Sequence	binding result ([2]; greatly reduced)	other results
AAGCATGCAATGCCCTGGAACGGAATTCTTCTAATAAAAGATGTATCATTTTAAATGC (double strand) [mCG]	–	binding result ([1]; 5mC at strand 1 position 21, reverse strand the appropriate methylated oligo (position not given)): binds
AAGCATGCAATGCCCTGGAAGTGGAATTCTTCTAATAAAAGATGTATCATTTTAAATGC (double strand)	binds more weakly	–
AAGCATGCAATGCCCTGGAACTGTAATTCTTCTAATAAAAGATGTATCATTTTAAATGC (double strand)	binds more weakly	–
AAGCATGCAATGCCCTGGAAGGTGTAATTCTTCTAATAAAAGATGTATCATTTTAAATGC (double strand)	–	binding result ([1]; reduced to near background): binds more weakly; binding result ([3]; indistinguishable from CG background, abstract: failed to bind): binds more weakly
AAGCATGCAATGCCCTGGAAGTGAAATTCTTCTAATAAAAGATGTATCATTTTAAATGC (double strand)	binds more weakly	–
AAGCATGCAATGCCCTGGAATTGTAATTCTTCTAATAAAAGATGTATCATTTTAAATGC (double strand)	binds more weakly	–
AAGCATGCAATGCCCTGGAAGTGTAACGCTTCTCGTACGAGATGTATCATTTTAAATGC (double strand) [GT2-A/T mut]	binds more weakly	–
AAGCATGCAATGCCCTGGAAGTATAATTCTTCTAATAAAAGATGTATCATTTTAAATGC (double strand)	binds more weakly	–
AAGCATGCAATGCCCTGGAAGTCTAATTCTTCTAATAAAAGATGTATCATTTTAAATGC (double strand)	binds more weakly	–
AAGCATGCAATGCCCTGGAAATGTAATTCTTCTAATAAAAGATGTATCATTTTAAATGC (double strand)	binds more weakly	–
AAGCATGCAATGCCCTGGAAGTGCAATTCTTCTAATAAAAGATGTATCATTTTAAATGC (double strand)	binds more weakly	–
AAGCATGCAATGCCCTGGAACGGAATTCTTCTAATAAAAGATGTATCATTTTAAATGC (double strand) [CG (parent)]	–	binding result ([3]; high nonspecific background): binds more weakly
AAGCATGCAATGCCCTGGAAGTTTAATTCTTCTAATAAAAGATGTATCATTTTAAATGC (double strand)	binds more weakly	–
AAGCATGCAATGCCCTGGAAACACAATTCTTCTAATAAAAGATGTATCATTTTAAATGC (double strand) [GT2-inv bot]	–	binding result ([2]; diminished): binds more weakly
